# No constants are given. Whether binding was seen depends on the method and setting. Binding seen in cells or lysates may run through a third protein. Here binding means that the protein was enriched with, or labelled near, the bait; the list need not be complete. Tags and fused reporters may be left off the sequences shown.
# T1: Rpf1 fused to a C-terminal tandem affinity purification (TAP) tag (S. cerevisiae (endogenous in BY4741)) (UniProt P38805)
# T1 sequence: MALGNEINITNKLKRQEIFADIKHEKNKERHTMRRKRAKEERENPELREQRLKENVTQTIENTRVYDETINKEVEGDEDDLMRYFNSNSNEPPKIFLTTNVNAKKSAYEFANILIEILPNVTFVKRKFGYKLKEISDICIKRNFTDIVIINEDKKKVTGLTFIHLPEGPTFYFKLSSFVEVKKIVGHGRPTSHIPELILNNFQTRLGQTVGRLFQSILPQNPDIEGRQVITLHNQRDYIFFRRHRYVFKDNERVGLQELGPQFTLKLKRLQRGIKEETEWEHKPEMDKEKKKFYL
# Biological target: T1, Rpf1 fused to a C-terminal tandem affinity purification (TAP) tag (S. cerevisiae (endogenous in BY4741))
# Experiment: affinity purification with mass spectrometry; Rpf1-TAP pre-60S particle from yeast lysate on IgG-coated Dynabeads, released with TEV protease; composition told by mass spectrometry, by cross-linking with mass spectrometry and by the proteins modelled in the map; the particle holds rRNA
row,Binder,binding
1,"Mak16 (protein, UniProt P10962 1-306) MSDEIVWQVINQSFCSHRIKAPNGQNFCRNEYNVTGLCTRQSCPLANSKYATVKCDNGKLYLYMKTPERAHTPAKLWERIKLSKNYTKALQQIDEHLLHWSKFFRHKCKQRFTKLTQVMITERRLALREEERHYVGVAPKVKRREQNRERKALVAAKIEKAIEKELMDRLKSGAYGDKPLNVDEKVWKKIMGQMEEENSQDEEEDWDEEEESDDGEVEYVADDGEGEYVDVDDLEKWLADSDREASSASESESDSESESDSDSDEENKNSAKRRKKGTSAKTKRPKVEIEYEEEHEVQNAEQEVAQ",binds
2,"Nsa1 (protein, UniProt P53136 1-463) MRLLVSCVDSGSIKEVLCNIGTDTSVQSALQPFHVAPHLAEGLKAYVDRMWVISEDEAILARNSGVVELVKISKHLKENEALQVDPKGESKNEKSLSDDLPKFDISEFEITSSVSDLFDDAKLESLSSKSVKRTKLVDGFVTLCPIKKDSSNNTFVAATKSGLLHIIKKGEDKKLIKLASLGLKAPVEFLQLYDLEDTDTDKYIFAYGGEENLIKLVEIDSSFQSLKQIWEAKNVKNDRLDMRVPVWPMALRFLEPSPGKTEKGKLNYQFAAITRWSHLTKYSTQHGRKPFAQIDLLPNREPLSQMEVFDAKGENVVSSLGNFQSETFNELNVITTDYKKNVFKFDGNGRMLGKVGRDDITGSSTYIHVHDGKYLLQGGLDRYVRIFDIKTNKMLVKVYVGSRINFIVMLDDVEIEMPLSPSAKAAKGKQKRKVTELEEDADELWNKLEGKVAASKASKKSKI",binds
3,"Nop53 (protein, UniProt Q12080 1-455) MAPTNLTKKPSQYKQSSRKGKKAWRKNIDLSDVEQYMEKKIDHEITHGTSDITSLQNDALFHVDVEGDEILKNKLIKRKQIKKVLKSKEILDAVKTNSKIAALNHHKNSSGNPNKIQGVSKHELKKLMALAGRVHGESKIKNRVAKDGLVKTTAGDLWGEESNSKKQKVKLPSGIKLDVEKKDQIPEELLKKSTTSWSTASVRPSTLDIEPIAVKEFTEIPHAGKSYNPNNKAWSELINKEYKEEKAREDERIALEKYKERIRHLMETLDDNEEEESSSNEEEEEEEEENENENESTQCSGSDKEIKLSINKPVKNKKKTKYQRNKAKRHEEKVKLQQELKELRQRVKDLEEVINSEETEILSAIESDSNKVKKSKKNKKHKLGTKYSVIDERLEIKFSDELSDSLRKLKPEGNLLYDTVRKLQSSGKVETRVPVRKGRKYKQKITEKWTHKDFK",binds weakly
4,"Erb1 (protein, UniProt Q04660 1-807) MMAKNNKTTEAKMSKKRAASEESDVEEDEDKLLSVDGLIDAEASESDEDDDEYESAVEEKESSSDKEAQDDSDDDSDAELNKLLAEEEGDGEEDYDSSEFSDDTTSLTDRLSGVKLQTIVDPNIYSKYADGSDRIIKPEINPVYDSDDSDAETQNTIGNIPLSAYDEMPHIGYDINGKRIMRPAKGSALDQLLDSIELPEGWTGLLDKNSGSSLNLTKEELELISKIQRNEQTDDSINPYEPLIDWFTRHEEVMPLTAVPEPKRRFVPSKNEAKRVMKIVRAIREGRIIPPKKLKEMKEKEKIENYQYDLWGDSTETNDHVMHLRAPKLPPPTNEESYNPPEEYLLSPEEKEAWENTEYSERERNFIPQKYSALRKVPGYGESIRERFERSLDLYLAPRVRKNKLNIDPNSLIPELPSPKDLRPFPIRCSTIYAGHKGKVRTLSIDPSGLWLATGSDDGTVRVWEILTGREVYRTTLIDDEENPDYHIECIEWNPDANNGILAVAVGENIHLIVPPIFGYDIENNGKTKIEDGFGYDTFGTVKKSNLEVNENGDGDEDGENESAKNAVKKQVAQWNKPSQKQLEKDICITISCKKTVKKLSWHRKGDYFVTVQPDSGNTSVLIHQVSKHLTQSPFKKSKGIIMDAKFHPFKPQLFVCSQRYVRIYDLSQQILVKKLLPGARWLSKIDIHPRGDNLIASSFDKRVLWHDLDLASTPYKTLRYHEKAVRSVNFHKKLPLFSSAADDGTIHVFHATVYDDMMKNPMIVPLKKLTGHKVINSLGVLDAIWHPREAWLFSAGADNTARLWTT",binds
5,"Ytm1 (protein, UniProt Q12024 1-460) MTEDKSQVKIRFFTREKDELLHVQDTPMYAPISLKRYGLSEIVNHLLGSEKPVPFDFLIEGELLRTSLHDYLTKKGLSSEASLNVEYTRAILPPSYLNSFSNEDWVSSLDVGDGSKHIISGSYDGIVRTWDLSGNVQKQYSGHSGPIRAVKYISNTRLVSAGNDRTLRLWKTKNDDLKLTSQQQAQEDDDDEVNIEDGKTLAILEGHKAPVVSIDVSDNSRILSASYDNSIGFWSTIYKEMTVVDPLEDINNPNNKISTAARKRRKLTMKDGTIRRRAPLSLLESHTAPVEQVIFDSTDNTVGYSVSQDHTIKTWDLVTARCIDTRTTSYSLLSIAQLSTLNLLACGSSARHITLHDPRVGASSKVTQQQLIGHKNFVSSLDTCPENEYILCSGSHDGTVKVWDVRSTSPMYTITREDKSVQKGVNDKVFAVKWAEKVGIISAGQDKKIQINKGDNIFKN",binds
6,"Dbp10 (protein, UniProt Q12389 1-995) MAGVQKRKRDLEDQDDNGSEEDDIAFDIANEIALNDSESDANDSDSEVEADYGPNDVQDVIEYSSDEEEGVNNKKKAENKDIKKKKNSKKEIAAFPMLEMSDDENNASGKTQTGDDEDDVNEYFSTNNLEKTKHKKGSFPSFGLSKIVLNNIKRKGFRQPTPIQRKTIPLILQSRDIVGMARTGSGKTAAFILPMVEKLKSHSGKIGARAVILSPSRELAMQTFNVFKDFARGTELRSVLLTGGDSLEEQFGMMMTNPDVIIATPGRFLHLKVEMNLDLKSVEYVVFDEADRLFEMGFQEQLNELLASLPTTRQTLLFSATLPNSLVDFVKAGLVNPVLVRLDAETKVSENLEMLFLSSKNADREANLLYILQEIIKIPLATSEQLQKLQNSNNEADSDSDDENDRQKKRRNFKKEKFRKQKMPAANELPSEKATILFVPTRHHVEYISQLLRDCGYLISYIYGTLDQHARKRQLYNFRAGLTSILVVTDVAARGVDIPMLANVINYTLPGSSKIFVHRVGRTARAGNKGWAYSIVAENELPYLLDLELFLGKKILLTPMYDSLVDVMKKRWIDEGKPEYQFQPPKLSYTKRLVLGSCPRLDVEGLGDLYKNLMSSNFDLQLAKKTAMKAEKLYYRTRTSASPESLKRSKEIISSGWDAQNAFFGKNEEKEKLDFLAKLQNRRNKETVFEFTRNPDDEMAVFMKRRRKQLAPIQRKATERRELLEKERMAGLSHSIEDEILKGDDGETGYTVSEDALKEFEDADQLLEAQENENKKKKKPKSFKDPTFFLSHYAPAGDIQDKQLQITNGFANDAAQAAYDLNSDDKVQVHKQTATVKWDKKRKKYVNTQGIDNKKYIIGESGQKIAASFRSGRFDDWSKARNLKPLKVGSRETSIPSNLLEDPSQGPAANGRTVRGKFKHKQMKAPKMPDKHRDNYYSQKKKVEKALQSGISVKGYNNAPGLRSELKSTEQIRKDRIIAEKKRAKNARPSKKRKF",binds
7,"Drs1 (protein, UniProt P32892 1-752) MVVGTKKYSNLDFVPTISDSEDDVPILDSSDDEKVEAKKTTKKRKGKNNKKKVSEGDNLDEDVHEDLDAGFKFDLDADDTTSNFQGWNFLAEGESNKDDAEAFVKKDVDLDKIIRRKGGLVKMAHIDSKQEEETEKEKVEKENDSDDEELAMDGFGMGAPMNNGDENQSEEEEEEEEKEEEEEEEEEQEEMTLEKGGKDDEIDEEDDSEEAKADFYAPETEGDEAKKQMYENFNSLSLSRPVLKGLASLGYVKPSPIQSATIPIALLGKDIIAGAVTGSGKTAAFMIPIIERLLYKPAKIASTRVIVLLPTRELAIQVADVGKQIARFVSGITFGLAVGGLNLRQQEQMLKSRPDIVIATPGRFIDHIRNSASFNVDSVEILVMDEADRMLEEGFQDELNEIMGLLPSNRQNLLFSATMNSKIKSLVSLSLKKPVRIMIDPPKKAATKLTQEFVRIRKRDHLKPALLFNLIRKLDPTGQKRIVVFVARKETAHRLRIIMGLLGMSVGELHGSLTQEQRLDSVNKFKNLEVPVLICTDLASRGLDIPKIEVVINYDMPKSYEIYLHRVGRTARAGREGRSVTFVGESSQDRSIVRAAIKSVEENKSLTQGKALGRNVDWVQIEETNKLVESMNDTIEDILVEEKEEKEILRAEMQLRKGENMLKHKKEIQARPRRTWFQSESDKKNSKVLGALSRNKKVTNSKKRKREEAKADGNGARSYRKTKTDRIADQERTFKKQKSTNSNKKKGFKSRR",binds
8,"Nop2 (protein, UniProt P40991 1-618) MGSRRHKNKQAAPPTLEEFQARKEKKANRKLEKGKRPSTTQGDEVSDRKKKKSKPFKKSRKEEEEVVEEDKDLPEVDLEELSKARKSLFDDEEDDDEAGLVDEELKDEFDLEQEYDYDEDEDNDAHPIFSDDDDEADLEELNAQNMEALSKKLDEEEAEEAEEAEMELVEAENMQPRADILPTEEQEEMMAQETPNLTSTRTRMIEIVKVLENFKTLGAEGRSRGEYVDRLLKDICEYFGYTPFLAEKLFNLFSPAEAMEFFEANEIARPITIRTNTLKTRRRDLAQTLVNRGVNLQPIGSWTKVGLQIFDSQVPIGATPEYLAGHYILQAASSFLPVIALDPHENERILDMAAAPGGKTTYISAMMKNTGCVFANDANKSRTKSLIANIHRLGCTNTIVCNYDAREFPKVIGGFDRILLDAPCSGTGVIGKDQSVKVSRTEKDFIQIPHLQKQLLLSAIDSVDCNSKHGGVIVYSTCSVAVEEDEAVIDYALRKRPNVKLVDTGLAIGKEAFTSYRGKKFHPSVKLARRYYPHTYNVDGFFVAKFQKIGPSSFDDNQASAKEKETAARKEALEEGIIHSDFATFEDEEDDKYIEKSVKNNLLKKGVNPKAKRPSNEK",binds
9,"Mak11 (protein, UniProt P20484 1-414) MSAIGDKNQFRIIVGSYEHNILCLSLDIPNQKENDAAKTPHFMPIFHFQAHSLSIKCLAVSRRYLVSGSNDEHIRIYDLQKRKELGTLLSHQGSITALQFSHPASSSEDAAVSKGSKNSKWLLSASEDHKIMVWRVKDWETVGTLKGHTARVNDVDIHPTNRIAISVSDDHSIRLWNLMTLRNAAVLKLRKYNTNGTCVRWLGAKGDYFAVGLRDRVLIYETGSAKVFKEIVFQRKTLMHIETHILPFDNKEYLSVGISDGNVHFYPCEELFEKVEENEKQEDDDDKEDISPAFSLLGHTNRIKDFKFYTNEFGTYLVTIGSDGKIVVWDMSTKEQVAVYDCGERLNCLTLCDESIEKYNTMKKRDAETADIGDQSEVESDTEELKKIMFGEKKKLNKKKRKQLKKSKVSVELE",binds
10,"Rlp7 (protein, UniProt P40693 1-322) MSSTQDSKAQTLNSNPEILLRKRRNADRTRIERQELAKKKREEQIKKKRSNKNKFVRAESIVAKTLATSREKERIKRVSILEDKKAKNETQHIASGKDFILKITEKANGAEENSVDLEETEEEEDDGLIREKTTYDGKPALLFIVRVRGPLAVNIPNKAFKILSLLRLVETNTGVFVKLTKNVYPLLKVIAPYVVIGKPSLSSIRSLIQKRGRIIYKGENEAEPHEIVLNDNNIVEEQLGDHGIICVEDIIHEIATMGESFSVCNFFLQPFKLNREVSGFGSLNRLRKIKQREAESRTRQFSNAATAPVIEVDIDSLLAKLN",binds

# — article PMC6340896
